Percent effect of library compounds

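Whole-cell growth test on Mycobacterium tuberculosis, read after 3 days in glucose-containing 7H9 medium; the read-out is not stated. Compounds at 50 µM. Higher reads as more growth inhibition (inferred: compounds with an IC50 in retests scored well above the rest). About 69,000 compounds were tested under these conditions; 1.1% (about 760) showed 50% or more at least once.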

Each number is a percent effect as filed.
The controls that fix the scale are not given in the record; negative values are as filed.
The compounds are a random part of those screened.
Two or more numbers in one place are separate tests of the same structure; such repeats can differ widely.

* CC(C)(NS(C)(=O)=O)c1nc(-c2ccc(F)cc2Cl)no1 : 5.601%
* Cc1ccc(-c2noc(CN3CCc4nn(C)c(=O)cc4C3)n2)cc1 : 30.5%
* CCNc1ncc(C(=O)NCc2csc(-c3cnccn3)n2)cn1 : 3.371% & 5.309%
* O=C(c1ccc(CNC2CCSC2)cc1)N1CCCC1 (stereo not drawn) : 8.136%
* O=C(c1cccc2[nH]ncc12)N1CCCC1c1noc(C2CC2)n1 (stereo not drawn) : -11.94%
* Cc1ccc(CN(C)C(=O)CN2CCOC(Cn3cncn3)C2)o1 (stereo not drawn) : -10.62%
* COCCOc1ccccc1C(=O)N1CCCC(c2cc(C)[nH]n2)C1 (stereo not drawn) : 5.444%
* COC(=O)[C@@H]1CCCN1C(=O)c1cn(CCCc2ccccc2)nn1 : 4.938%
* CCc1noc(CN(CC(=O)N2CCCCC2)c2cccc(C)c2)n1 : 10.78%
* O=C(C1CC=CC1)N1CCc2c(COCc3ccncc3)cncc2C1.O=C(O)C(F)(F)F.O=C(O)C(F)(F)F : -13.97%
* Cn1cc(N2CCC(NC(=O)c3ccccc3Cl)C2=O)cn1 (stereo not drawn) : -15.17% & -2.697%
* COCCOc1ccc(NC(=O)N2CCCC2c2ccncc2)cn1 (stereo not drawn) : 18.28%
* Cc1csc(C(=O)N2CCC(O)(CN3CCc4ccccc4C3)C2)c1 (stereo not drawn) : 25.55%
* Cn1cc(C[C@H]2[C@H](N3CCOCC3)CCN2C2CCOCC2)cn1.O=C(O)C(F)(F)F.O=C(O)C(F)(F)F : -0.4306%
* Cc1ccc(-c2nc(C3CCN(C(=O)c4ccnn4C)CC3)no2)cn1 : -10.08%
* Cc1ccsc1CN(CCN(C)C)C(=O)C1=NNC(=O)CC1 : -9.167%
* Cc1cnc(C(=O)Nc2cc(F)ccc2OCC2CCCO2)cn1 (stereo not drawn) : 18.92%
* [H][C@]12CC[C@]([H])(CN(Cc3ccncc3)C1)N(C(=O)OC)C2 : 6.005% & 0.04071%
* [H][C@]12CC[C@]([H])(CN(Cc3cscn3)C1)N(C(=O)c1cc(C(C)C)on1)C2 : -3.098%
* Cc1cnc(CN2CC=C(c3c[nH]c4ncccc34)CC2)o1 : 25.95%
* CCOc1cc(CNC(=O)NCc2nc(C)c(C)s2)ccn1 : 18.97%
* Cc1c(F)cc(C(=O)O)cc1S(=O)(=O)Nc1cccc(C(F)F)c1 : 33.52%
* Cc1cc(C(=O)N2CCCC(N3CCCCCC3)C2)nn1C(C)(C)C (stereo not drawn) : 3.472%
* O=C(COC1CCCC1)N1CCC(C(O)c2ccc(F)cc2)CC1 (stereo not drawn) : -4.407%
* CCOCCn1c(=O)[nH]c2cc(C(=O)N(C)Cc3cnn(C)c3)ccc21 : -17%
* COC1CCCOC12CCN(C(=O)c1ccc3[nH]nnc3c1)CC2 (stereo not drawn) : 6.56%
* CCc1nc(C2CCCN2C(=O)c2cnns2)no1 (stereo not drawn) : -13.12%
* COCCN(C)C(=O)c1nc2c(s1)CCCN2S(C)(=O)=O : -4.867% & 7.072%
* CC(C)n1cnnc1CN(C)Cc1cnc(-c2ccccn2)nc1 : -21.89%
* CC(O)CN1CCN(Cc2coc(-c3cccc(Cl)c3)n2)CC1 (stereo not drawn) : -1.956% & -3.571%
* COc1ccc(N2CCN(C(=O)COc3nccc(C)n3)CC2)cc1 : 22.28%
* COCC1CN(Cc2ccc(OC)cc2)Cc2nnn(CC3CC3)c21.O=C(O)C(F)(F)F (stereo not drawn) : 2.95% & -1.25%
* CCC(C)C(=O)NCc1cccc(N2CCCCC2=O)c1 (stereo not drawn) : -14.31%
* Cc1cc(C)nc(C2CCCN2C(=O)c2cnco2)n1 (stereo not drawn) : 0.8033%
* CCc1cc(N(C)CCc2noc(C)n2)nc(N2CCOCC2)n1 : -25.43%
* CCC(=O)NCC(=O)NCC1(c2c(F)cccc2F)CCCC1 : -11.72%
* Cc1cnn(CC2CCN(CC(O)COc3ccccc3)CC2)c1 (stereo not drawn) : -1.088% & 2.942%
* CC(=O)N1CCC(c2nccnc2CNC(=O)c2cc[nH]n2)CC1 : -1.591%
* Cc1ccnc(C2CN(Cc3ccc(-c4ccccc4C(=O)O)o3)C2)n1 : -3.228%
* FC(F)(F)CCc1ccnc(N2CCN(Cc3ccncc3)CC2)n1 : -12.95%
* Cc1nc2c(c(N[C@H](C(N)=O)C(C)C)n1)Cc1ccccc1OC2 : 11.39%
* CC(=O)N1CCCC1c1nccnc1Nc1cccc(C)n1 (stereo not drawn) : 23.14%
* O=C(O)C(F)(F)F.[H][C@]12CC[C@@]3(N=C(CC)N(C)C3=O)[C@@]1([H])CN(Cc1ccc(C)cc1)C2 : 13.34%
* Cc1nc(-c2ccc(S(=O)(=O)N3CCC4(CC3)OCCO4)cc2)co1 : 7.752%
* CN(C)C[C@H]1O[C@H](Cc2cc(-c3ccccn3)on2)CC[C@@H]1O : -3.854% & 31.94%
* Cc1c(C2SCC(=O)Nc3c2c(O)nn3C2CCCCC2)cnn1C (stereo not drawn) : -7.316%
* O=C(CCNCC(F)(F)F)N1CCC(Nc2cccnn2)CC1 : -12.71%
* [H][C@@]12CS(=O)(=O)C[C@]1([H])N(C(=O)c1csc(C)n1)CCN2C(=O)N(C)C : 8.862%
* Cn1cc(S(=O)(=O)NCC2CCN(C(=O)c3ccoc3)CC2)cn1 : 15.04%
* Cn1nc2c(cc1=O)CN(CCN1CCCC1=O)CC2 : -17.76%
* O=C(O)c1cnc(-c2cccc3c2CCNC3)c(Cl)c1 : 4.14% & -2.616%
* CNS(=O)(=O)c1ccc(CNC(=O)NCc2cc[nH]n2)cc1 : -31.9% & 8.325%
* O=C(c1ccc(Cl)cc1)N1CCC2(CC1)C(=O)Nc1ccccc12 : 6.184% & -31%
* CC(Oc1ccc(F)cc1F)C(=O)N1CCC2(CCCO2)CC1 (stereo not drawn) : -25.18%
* O=C(NCCCn1cccn1)N1CCCC1c1ccncc1 (stereo not drawn) : -14.32%
* O=C(O)C(F)(F)F.[H][C@@]12COC[C@]1(c1nnc(C)o1)CN(Cc1cccs1)C2 : -31.96% & -3.242%
* CN(C)C1CCN(C(=O)Cc2csc(-c3ncccn3)n2)CC1 : -17.75%
* CN(Cc1ccc([S+](C)[O-])cc1)c1cncc(Cl)n1 (stereo not drawn) : -1.647%
* Cn1c(-c2ccc(F)cc2)cn2cc(C(=O)N3CCC(N)C3)nc2c1=O (stereo not drawn) : 3.469% & -17.22%

The values are deposited in ChEMBL (CHEMBL3988442, “University of Dundee, Small-Polar-MMV Screening Library” (2021)).